# Test results from the supplement of paper PMC12873370.
# Where “and” joins values, the source holds several entries; their conditions need not be identical. Identical values can stand only once. The list shows a part of the results. Most values come without repeats; read them as rough.
# Key:
# [1] = system: MEPP (mouse ovarian epithelium Trp53/Pten KO); test: cell viability relative to untreated (fraction); higher = less growth inhibition; conditions: 5 µM; 3 days
# [2] = system: PREPP (mouse prostate epithelium Trp53/Pten KO); test: as above; conditions: 5 µM; 3 days
Structure (SMILES),cell viability [1],cell viability [2]
O=C(CO)[C@@H](O)[C@H](O)[C@H](O)CO,1.29 and 1.16,0.929 and 0.863
C[N+]1(C)CCCC1C(=O)O (configuration not stated),0.934,0.733
N[C@@H](CS)C(=O)O,1.09,1.02
COC1=C(OC)C(=O)C(C/C=C(\C)CC/C=C(\C)CC/C=C(\C)CC/C=C(\C)CC/C=C(\C)CC/C=C(\C)CC/C=C(\C)CC/C=C(\C)CC/C=C(\C)CCC=C(C)C)=C(C)C1=O,0.763,1.13
CN(C)c1cc(NC(=O)CNC(C)(C)C)c(O)c2c1C[C@H]1C[C@H]3[C@H](N(C)C)C(O)=C(C(N)=O)C(=O)[C@@]3(O)C(O)=C1C2=O,0.987,0.88
CNC(CC(=O)O)C(=O)O (configuration not stated),1.22,0.907
Cc1cc(=O)oc2ccc(O)cc12,0.855,1.2
CC1(C)S[C@@H]2[C@H](NC(=O)Cc3ccccc3)C(=O)N2[C@H]1C(=O)O,0.9 and 1.01,0.912 and 0.88
C=CC1=C(C(=O)O)N2C(=O)[C@@H](NC(=O)/C(=N\OCC(=O)O)c3csc(N)n3)[C@H]2SC1,1.08,0.905
CC(=O)c1cc(O)ccc1O,1.09,0.747
Cn1cnc(N)c2ncnc1-2,1.06,0.909
C[C@H](CCC(=O)NCCS(=O)(=O)O)[C@H]1CC[C@H]2[C@@H]3[C@H](O)C[C@@H]4C[C@H](O)CC[C@]4(C)[C@H]3CC[C@]12C,1.03,1.07
O=C(O)[C@H]1CCCCN1,1.04,0.984
COc1cc(/C=C/CO)cc(OC)c1O[C@@H]1O[C@H](CO)[C@@H](O)[C@H](O)[C@H]1O,1.24,1.07
CC(C)(Sc1cc(C(C)(C)C)c(O)c(C(C)(C)C)c1)Sc1cc(C(C)(C)C)c(O)c(C(C)(C)C)c1,0.884,0.821
O=C(O)c1ccc(O)cc1,1.07,0.925
Nc1ncnc2c1ncn2C1OC(COP(=O)(O)O)C(O)C1O (configuration not stated),0.958,1.13
CC(C)=CCC/C(C)=C/CO,1.03,0.824

Structure (SMILES),cell viability [1],cell viability [2]
O=C1CC[C@@H](C(=O)O)N1,1.03,1.04
CO/N=C(\C(=O)N[C@@H]1C(=O)N2C(C(=O)O)=C(C)CS[C@H]12)c1csc(N)n1,1.23,1
Nc1ncnc2c1ncn2C1CC(O)C(CO)O1 (configuration not stated),0.834,1.44
O=C(/C=C/c1ccc(O)c(O)c1)OC1[C@H](O)CC(O)(C(=O)O)C[C@H]1O (some centres not stated),0.863,0.835
COc1ccc2cc3[n+](cc2c1OC)CCc1cc2c(cc1-3)OCO2,1.15 and 0.76 and 0.734,1.09 and 1.11 and 1.18
Oc1ccccc1O,0.991,0.956
COc1cccc(/C=N/N(C(=O)C(F)(F)F)c2ccc(C)cc2C)c1,0.991,0.868
COc1cc2c(cc1OC)[C@@H](Cc1ccc(O)c(Oc3cc4c(cc3OC)CCN(C)[C@@H]4Cc3ccc(O)cc3)c1)N(C)CC2,1.07,0.977
COc1cc([C@@H]2[C@H]3CO[C@@]4(O)C(=O)[C@@H]2C=C([C@H]2Oc5cc(O)cc(O)c5C(=O)[C@@H]2O)[C@@H]34)ccc1O,1.28,0.904
CC(=O)/C(C)=N/O,0.945,1.01
O=C(/C=C/c1ccc(O)c(O)c1)OCCc1ccccc1,1.07,0.867
COc1cc(C(=O)O)ccc1O,0.846,1.04
COc1c2occc2cc2ccc(=O)oc12,1.26,0.95
OCC1=C[C@@H](O)[C@@H]2C=CO[C@@H](O[C@@H]3O[C@H](CO)[C@@H](O)[C@H](O)[C@H]3O)[C@H]12,0.955,1.22
CC(=O)NCC(=O)O,0.799,1.01
C[C@]12CC[C@@H]3c4ccc(OC(=O)c5ccccc5)cc4CC[C@H]3[C@@H]1CC[C@@H]2O,0.787,0.846
Oc1c(Br)cc(Br)c2cccnc12,1.46,0.875
C=C1CC[C@@H]2[C@](C)(CO)[C@H](O)CC[C@@]2(C)[C@@H]1C/C=C1/C(=O)OC[C@H]1O,1.14,1.36
